We go through one molecule from article PMC9105235.

Results are given in words; binding and its absence hold for the method and conditions named. In cells and extracts the contact can be indirect. Here binding means that the protein was enriched with, or labelled near, the bait; the list need not be complete.

One assay addresses PrC-CUL3-WT (human) (UniProt Q13618). The assay is described as follows: affinity purification with mass spectrometry; PrC-CUL3-WT or PrC-CUL3-∆9 precipitated with HPC4-sepharose overnight at 4 °C from lysates of tetracycline-induced Flp-In T-REx 293 cells (50 mM HEPES pH 7.5, 150 mM NaCl, 0.5% Nonidet P-40, 2 mM CaCl2); label-free LC-MS/MS, two independent experiments, empty vector as control.

A further assay concerns the target PrC-CUL3-∆9 (human) (UniProt Q13618). The assay is described as above.

B1: ACTIN-BINDING PROTEIN IPP (protein, UniProt Q9Y573 1-584)
chain: MANEDCPKAADSPFSSDKHAQLILAQINKMRNGQHFCDVQLQVGQESFKAHRLVLAASSPYFAALFTGGMKESSKDVVPILGIEAGIFQILLDFIYTGIVNIGVNNVQELIIAADMLQLTEVVHLCCEFLKGQIDPLNCIGIFQFSEQIACHDLLEFSENYIHVHFLEVHSGEEFLALTKDQLIKILRSEELSIEDEYQVFLAAMQWILKDLGKRRKHVVEVLDPIRFPLLPPQRLLKYIEGVSDFNLRVALQTLLKEYCEVCKSPKENKFCSFLQTSKVRPRKKARKYLYAVGGYTRLQGGRWSDSRALSCVERFDTFSQYWTTVSSLHQARSGLGVTVLGGMVYAIGGEKDSMIFDCTECYDPVTKQWTTVASMNHPRCGLGVCVCYGAIYALGGWVGAEIGNTIERFDPDENKWEVVGNMAVSRYYFGCCEMQGLIYVIGGISNEGIELRSFEVYDPLSKRWSPLPPMGTRRAYLGVAALNDCIYSVGGWNETQDALHTVEKYSFEEEKWVEVASMKVPRAGMCVVAVNGLLYVSGGRSSSHDFLAPGTLDSVEVYNPHSDTWTEIGNMITSRCEGGVAVL
On to B1, for which the binding result with PrC-CUL3-WT (human) and with PrC-CUL3-∆9 (human) was “binds” throughout.
